# In patent publication US4297280A, “4,1-Benzoxazepines” (Shionogi & Co., Ltd., priority 1978, dated 1981):
# Assay: acute lethality (LD50)
# Settings: in vivo; DS male mouse, 20-24 g
# Description: *^3 test animal: DS male mouse, 20-24 g of body weight
structure (smiles),measurement,value
"CN1C(=O)CN=C(c2ccccc2)c2cc(Cl)ccc21 [diazepam, reference compound]",LD50,> 1000 mg/kg
